What all share (type): functional, cell-based
For assay [1], the system named is SK-MEL-28. The assay can be described thus: Antiproliferative activity against human SK-MEL-28 cells assessed as cell growth inhibition incubated for 48 hrs by MTT assay. The note with it: SK-MEL-28, 48 h. On the technique in general: Tetrazolium assays rely on reduction of a dye to a coloured formazan, in cell work by metabolically active cells.
For assay [2], the system named is A-375. The experiment in a line: Antiproliferative activity against human A375 cells assessed as cell growth inhibition incubated for 48 hrs by MTT assay. The conditions noted are these: A-375, 48 h.
Assay [3] relates to SK-MEL-5. The assay can be described thus: Antiproliferative activity against human SK-MEL-5 cells assessed as cell growth inhibition incubated for 48 hrs by MTT assay. The note with it: SK-MEL-5, 48 h.

pIC50: −log10 of the molar value.

The pIC50 is −log10 of the IC50, conventionally taken in molar units.

With `CC(C)NCC(O)COc1cccc2ccccc12` (stereo not drawn) [PROPRANOLOL], the pIC50 in assay [1] is 4.12; in assay [2], 4.23; in assay [3], 4.21.

(Values after ChEMBL document CHEMBL4627350, “Drug repurposing and rediscovery: Design, synthesis and preliminary biological evaluation of 1-arylamino-3-aryloxypropan-2-ols as anti-melanoma agents” (Bioorg Med Chem, 2020).)
